Like-named read-outs stand apart in the source and are kept apart here. Results are given in words; binding and its absence hold for the method and conditions named. Binding seen in cells or lysates may run through a third protein. Some binding calls cover weakened binding; strength is not graded here. Each block holds one molecule with its values, some of them ahead of it.
Legend:
Test in all cases: co-IP; lysates of human AVICs in IP lysis buffer, incubated with specific antibodies for 4 h, Protein A/G Sepharose beads overnight at 4 °C, three washes with PBS, western blot; for Fig. 7d and Supplementary Fig. 7b cells with Dkk2 overexpression or Dkk2 knockdown
[1] = molecular target: T1, Kremen1 (Krm1) (human (endogenous in human AVICs)) (UniProt Q96MU8)
T1 sequence: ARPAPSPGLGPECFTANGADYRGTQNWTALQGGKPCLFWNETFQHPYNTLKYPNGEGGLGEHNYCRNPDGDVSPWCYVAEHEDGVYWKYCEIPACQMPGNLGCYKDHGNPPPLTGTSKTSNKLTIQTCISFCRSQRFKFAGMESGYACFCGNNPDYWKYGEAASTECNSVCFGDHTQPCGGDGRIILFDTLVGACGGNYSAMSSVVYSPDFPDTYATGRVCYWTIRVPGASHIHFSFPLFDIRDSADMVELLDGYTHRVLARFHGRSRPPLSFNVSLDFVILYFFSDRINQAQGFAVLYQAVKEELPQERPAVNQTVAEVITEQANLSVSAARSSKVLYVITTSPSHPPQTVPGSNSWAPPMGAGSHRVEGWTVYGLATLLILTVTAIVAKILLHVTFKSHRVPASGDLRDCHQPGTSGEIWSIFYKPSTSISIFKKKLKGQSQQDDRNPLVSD

Sequences of proteins named here, by UniProt entry; tags and fusion partners are left off. Residues count along the entry.
UniProt P17844: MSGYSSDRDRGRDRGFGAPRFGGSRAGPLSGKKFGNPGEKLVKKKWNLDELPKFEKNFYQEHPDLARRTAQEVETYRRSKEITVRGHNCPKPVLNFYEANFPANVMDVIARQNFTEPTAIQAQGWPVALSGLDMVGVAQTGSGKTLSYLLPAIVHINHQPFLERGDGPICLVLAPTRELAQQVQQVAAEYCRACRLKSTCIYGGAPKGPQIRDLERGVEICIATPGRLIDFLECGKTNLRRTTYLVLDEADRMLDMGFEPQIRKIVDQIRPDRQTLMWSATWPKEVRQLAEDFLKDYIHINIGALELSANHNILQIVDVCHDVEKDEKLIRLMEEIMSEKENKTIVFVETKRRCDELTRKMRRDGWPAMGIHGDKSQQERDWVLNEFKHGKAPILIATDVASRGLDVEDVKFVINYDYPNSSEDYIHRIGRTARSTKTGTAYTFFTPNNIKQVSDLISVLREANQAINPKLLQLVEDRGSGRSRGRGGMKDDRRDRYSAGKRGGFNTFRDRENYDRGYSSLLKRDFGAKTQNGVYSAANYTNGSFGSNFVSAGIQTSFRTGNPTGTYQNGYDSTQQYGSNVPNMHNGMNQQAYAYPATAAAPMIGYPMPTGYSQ
UniProt O75581, residues 20-1613: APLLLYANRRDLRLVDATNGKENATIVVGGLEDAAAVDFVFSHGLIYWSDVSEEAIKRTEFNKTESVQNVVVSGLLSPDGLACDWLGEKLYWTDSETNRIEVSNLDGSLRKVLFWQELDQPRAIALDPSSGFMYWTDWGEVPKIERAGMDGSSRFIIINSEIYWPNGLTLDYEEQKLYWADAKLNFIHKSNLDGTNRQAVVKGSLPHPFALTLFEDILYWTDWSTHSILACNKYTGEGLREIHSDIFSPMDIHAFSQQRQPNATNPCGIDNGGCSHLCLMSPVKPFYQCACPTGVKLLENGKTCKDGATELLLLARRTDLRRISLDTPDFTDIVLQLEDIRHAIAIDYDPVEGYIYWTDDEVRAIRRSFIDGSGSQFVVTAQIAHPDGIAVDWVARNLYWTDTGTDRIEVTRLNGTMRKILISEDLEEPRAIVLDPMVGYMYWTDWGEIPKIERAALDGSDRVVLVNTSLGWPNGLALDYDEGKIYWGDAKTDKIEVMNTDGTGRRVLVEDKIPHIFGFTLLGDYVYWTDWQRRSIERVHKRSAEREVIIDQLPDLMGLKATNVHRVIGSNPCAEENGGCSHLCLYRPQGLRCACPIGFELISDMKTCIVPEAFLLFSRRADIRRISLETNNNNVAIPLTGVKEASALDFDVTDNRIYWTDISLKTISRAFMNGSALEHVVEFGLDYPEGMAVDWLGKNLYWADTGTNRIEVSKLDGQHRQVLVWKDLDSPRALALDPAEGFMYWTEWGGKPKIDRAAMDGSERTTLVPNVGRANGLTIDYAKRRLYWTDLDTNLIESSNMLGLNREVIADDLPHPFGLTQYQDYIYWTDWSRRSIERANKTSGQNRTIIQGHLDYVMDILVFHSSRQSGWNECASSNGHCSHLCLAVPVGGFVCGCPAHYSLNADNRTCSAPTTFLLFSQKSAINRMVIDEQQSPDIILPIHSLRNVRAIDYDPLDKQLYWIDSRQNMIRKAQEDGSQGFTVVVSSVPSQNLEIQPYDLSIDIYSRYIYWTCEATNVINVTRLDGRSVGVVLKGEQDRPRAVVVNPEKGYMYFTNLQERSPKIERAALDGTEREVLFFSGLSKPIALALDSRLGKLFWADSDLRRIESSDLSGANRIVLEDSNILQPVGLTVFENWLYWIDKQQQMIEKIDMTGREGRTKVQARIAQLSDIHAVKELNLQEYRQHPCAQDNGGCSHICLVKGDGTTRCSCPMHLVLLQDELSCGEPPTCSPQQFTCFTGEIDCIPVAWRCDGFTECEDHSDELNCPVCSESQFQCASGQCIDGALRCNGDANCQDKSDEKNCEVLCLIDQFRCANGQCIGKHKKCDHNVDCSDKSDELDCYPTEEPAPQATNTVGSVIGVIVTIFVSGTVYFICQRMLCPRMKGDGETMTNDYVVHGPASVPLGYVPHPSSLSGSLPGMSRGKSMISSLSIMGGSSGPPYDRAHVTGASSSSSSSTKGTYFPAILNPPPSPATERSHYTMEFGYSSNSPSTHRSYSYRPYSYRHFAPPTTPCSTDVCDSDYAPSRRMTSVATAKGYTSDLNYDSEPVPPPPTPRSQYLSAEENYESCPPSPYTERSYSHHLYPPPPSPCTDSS
UniProt Q9UBP4, residues 22-350: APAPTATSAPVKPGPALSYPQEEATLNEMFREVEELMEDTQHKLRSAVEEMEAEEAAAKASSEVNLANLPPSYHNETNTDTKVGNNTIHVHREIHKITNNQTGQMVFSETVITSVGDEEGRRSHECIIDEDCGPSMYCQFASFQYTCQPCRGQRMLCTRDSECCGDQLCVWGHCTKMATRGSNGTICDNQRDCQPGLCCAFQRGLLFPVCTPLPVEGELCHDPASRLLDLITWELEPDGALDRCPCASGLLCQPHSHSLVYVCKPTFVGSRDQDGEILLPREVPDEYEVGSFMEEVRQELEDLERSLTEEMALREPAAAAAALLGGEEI
UniProt Q86U44: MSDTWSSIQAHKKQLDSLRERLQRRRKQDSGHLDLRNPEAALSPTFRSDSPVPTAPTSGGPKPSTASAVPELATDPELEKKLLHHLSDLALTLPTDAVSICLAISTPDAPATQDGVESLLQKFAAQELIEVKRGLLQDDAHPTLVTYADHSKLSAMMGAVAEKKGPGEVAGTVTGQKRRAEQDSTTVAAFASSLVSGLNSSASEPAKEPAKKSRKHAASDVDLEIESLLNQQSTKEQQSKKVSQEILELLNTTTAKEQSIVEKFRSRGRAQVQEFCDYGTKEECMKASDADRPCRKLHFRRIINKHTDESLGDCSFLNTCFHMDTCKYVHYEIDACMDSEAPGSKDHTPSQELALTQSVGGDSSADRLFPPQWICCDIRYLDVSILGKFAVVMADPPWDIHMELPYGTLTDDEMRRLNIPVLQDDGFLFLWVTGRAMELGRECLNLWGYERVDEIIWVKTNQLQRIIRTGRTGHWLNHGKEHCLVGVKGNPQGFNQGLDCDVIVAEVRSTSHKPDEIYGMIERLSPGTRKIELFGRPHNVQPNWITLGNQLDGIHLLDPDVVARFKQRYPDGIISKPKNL

[2] = molecular target: DEAD-box helicase 5 (DDX5) (human (endogenous in human AVICs)) (UniProt P17844)
[3] = molecular target: T1, Kremen1 (Krm1) (human (endogenous in human AVICs)); remark: listed apart in the source
[4] = molecular target: LDL receptor-related protein 6 (LRP6) (human (endogenous in human AVICs)) (UniProt O75581)

binding [1]: binds
Molecule: Dkk3 (from UniProt Q9UBP4 22-350) (ligand)

binding [2]: binds
Molecule: methyltransferase 3 (METTL3) (from UniProt Q86U44 1-580) (enzyme)

binding [3]: binds
binding [4]: binds
B1: Dickkopf2 (Dkk2) (ligand, UniProt Q9UBU2 34-259)
chain: KLNSIKSSLGGETPGQAANRSAGMYQGLAFGGSKKGKNLGQAYPCSSDKECEVGRYCHSPHQGSSACMVCRRKKKRCHRDGMCCPSTRCNNGICIPVTESILTPHIPALDGTRHRDRNHGHYSNHDLGWQNLGRPHTKMSHIKGHEGDPCLRSSDCIEGFCCARHFWTKICKPVLHQGEVCTKQRKKGSHGLEIFQRCDCAKGLSCKVWKDATYSSKARLHVCQKI

— paper PMC11297286
